The results in this text go back to PubChem BioAssay AID1487 (National Center for Advancing Translational Sciences (NCATS), 2009).

This experiment is described as follows: qHTS Assay for Modulators of Lamin A Splicing. To be noted: HeLa LMNA splicing GFP/RFP minigene ratio, 48 h. The method, boiled down:
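Read-out is the ratio of GFP to DsRed2 object intensity, acquired by 488 nm laser-scanning cytometry on HeLa lamin A-EGFP minigene reporter cells. Compound incubation 48 hrs at 37 °C in Opti-MEM with 2% FBS; DMSO 0.5% final.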

Setting [1] is: measured here: RFP viability control channel.
The mark [2] stands for this setting: measured here: GFP splicing reporter channel.

Molecules are shown by their SMILES. The list shows a part of the results. Further columns of the screen follow, without active or inactive calls. The list favours compounds with an active or inconclusive main result. Potencies come from curve fits of mixed quality, noted in brackets.

`O=C(COc1ccc2c(-c3ccccc3)cc(=O)oc2c1)NCc1cccs1`: the AC50 under setting [1] was 0.0891 µM [falling, full curve, poor fit].

For `Cc1cc(C)c(C)c(OCCOCCNCc2ccccc2)c1`, the AC50 is, setting by setting: under setting [2], 10 µM [rising, partial curve]; under setting [1], 12.6 µM [rising, partial curve]. As for `O=C(NC1CC1)c1ccc(S(=O)(=O)NC2CCCCCC2)cc1`, the half-maximal activity concentration (AC50) under setting [1] was 12.6 µM [rising, partial curve, poor fit]. With `Cc1cc(C(=O)CN(Cc2ccc(F)cc2)S(=O)(=O)c2ccc3c(c2)OCCO3)c(C)n1C`, the AC50 under setting [2] was 6.31 µM [rising, full curve, poor fit] and the AC50 under setting [1] was 12.6 µM [rising, partial curve]. On to `Cc1ccc(CNC(=O)c2ccc(-n3c(C)cc4c3CCCC4)cc2)cc1`, for which the AC50 is 31.6 µM [falling, partial curve] under setting [2] and 25.1 µM [falling, partial curve] under setting [1]. For `CCS(=O)(=O)c1ccc2oc(SCC(=O)N3CCCCC3)nc2c1`, the half-maximal activity concentration (AC50) was 2.51 µM [falling, partial curve] under setting [2] and 3.55 µM [falling, partial curve] under setting [1].

Regarding `C/C(=N/NC(N)=S)c1ccc(Br)s1`, the AC50 under setting [1] is 25.1 µM [falling, single point]. With `COc1ccc2oc(-c3ccc(C)c(NC(=O)c4cccnc4)c3)nc2c1`, the concentration at half-maximal activity (AC50) under setting [2] was 1.26 µM [falling, full curve, poor fit] and the half-maximal activity concentration (AC50) under setting [1] was 0.891 µM [falling, full curve, poor fit]. As to `CC1(C)C2CC=C(/C=N/NC(=O)C3CC3)C1C2` (stereo unspecified), the AC50 under setting [2] was 1 µM [falling, full curve, poor fit]. For the compound `COc1cccc(N(C(=O)c2ccn[nH]2)C2(C(=O)Nc3c(C)cccc3C)CCCCC2)c1`, the AC50 under setting [1] is 20 µM [rising, partial curve, poor fit]. Regarding `Cc1ccc(OCC(=O)Nc2ccc3nc(SCC(=O)N4CCCC4)sc3c2)cc1`, the concentration at half-maximal activity (AC50) reads like this: under setting [2], 15.8 µM [falling, single point]; under setting [1], 12.6 µM [falling, partial curve, poor fit]. Take `Oc1ccc(Nc2nc(N3CCCC3)c3ccccc3n2)cc1`: the AC50 is 10 µM [rising, partial curve, poor fit] under setting [2] and 11.2 µM [rising, partial curve] under setting [1]. For `COc1ccc(C(c2nnnn2CCc2ccccc2)N2CCN(C3CCCC3)CC2)cc1` (stereo unspecified), the AC50 is 35.5 µM [falling, single point] under setting [2] and 35.5 µM [falling, single point] under setting [1].

In the case of `Cc1ccccc1NC(=O)c1ccc(N/N=C/c2ccccc2O)c([N+](=O)[O-])c1`, the half-maximal activity concentration (AC50) was 35.5 µM [falling, single point] under setting [2] and 35.5 µM [falling, single point] under setting [1]. Take `Cc1cc(C)c2sc(N(Cc3cccnc3)C(=O)CCS(=O)(=O)c3ccccc3)nc2c1`: the AC50 under setting [2] is 11.2 µM [falling, partial curve, poor fit] and the AC50 under setting [1] is 35.5 µM [falling, partial curve]. Turning to `Cc1ccc(Cl)cc1NC(=O)COC(=O)CC(C)(C)C`, the half-maximal activity concentration (AC50) under setting [2] was 35.5 µM [rising, single point] and the concentration at half-maximal activity (AC50) under setting [1] is 22.4 µM [rising, partial curve, poor fit]. Consider `CCOC(=O)c1c(NC(C)=O)sc2c(O)cccc12`, for which the half-maximal activity concentration (AC50) under setting [1] was 35.5 µM [rising, single point]. Turning to `O=C(NCc1cccc(C(F)(F)F)c1)C1CC(c2c(Cl)cccc2Cl)=NO1` (stereo unspecified), under setting [1], the AC50 is 5.62 µM [falling, single point]. Same read-out and setting: for `Cc1c(NC(=S)SCc2ccccc2)c(=O)n(-c2ccccc2)n1C` the value was 12.6 µM [rising, partial curve].

Regarding `CCOc1ccccc1OCC(=O)N/N=C(\C)Cc1ccc(OC)cc1`, the AC50 under setting [1] is 6.31 µM [rising, full curve]. Regarding `Cc1cc(C)cc(CSc2nnc(C)c(=O)[nH]2)c1`, under setting [2], the AC50 was 8.91 µM [rising, partial curve, poor fit].

For the compound `CC(=O)C1=C(C)NC(SCC(=O)c2cc(Cl)ccc2Cl)=C(C#N)C1c1ccco1` (stereo unspecified), the AC50 runs as follows: under setting [2], 11.2 µM [rising, partial curve]; under setting [1], 14.1 µM [rising, single point].

For the compound `Cc1ccc(OCCn2cc(/C=C(\C#N)C(=O)NCC3CCCO3)c3ccccc32)cc1` (stereo unspecified), the half-maximal activity concentration (AC50) under setting [1] is 11.2 µM [rising, partial curve, poor fit]. Take `CCOc1cc(/C=C2\SC(=N)N(c3nccs3)C2=O)ccc1OCCN1CCOCC1`: the half-maximal activity concentration (AC50) runs as follows: under setting [2], 5.62 µM [rising, full curve, poor fit]; under setting [1], 7.94 µM [rising, partial curve].

As to `Cc1ccc(NS(=O)(=O)c2ccc3[nH]c4c(c3c2)CCCCCC4)cc1Cl`, the concentration at half-maximal activity (AC50) under setting [2] is 17.8 µM [falling, partial curve] and the AC50 under setting [1] was 15.8 µM [falling, single point]. For `CC(=O)c1c(C)oc2ccc(N(C(=O)c3ccncc3)S(=O)(=O)c3ccccc3)cc12`, under setting [1], the AC50 is 20 µM [falling, partial curve, poor fit]. Consider `CCOC(=O)C(NC(=O)c1cccc(Cl)c1)(OCc1ccccc1)C(F)(F)F` (stereo unspecified), for which the half-maximal activity concentration (AC50) is, setting by setting: under setting [2], 12.6 µM [rising, single point]; under setting [1], 35.5 µM [rising, single point]. Turning to `Cc1c(C(=O)NCc2ccccc2)sc2nc3n(c(=O)c12)CCC3`, the AC50 under setting [2] was 0.0562 µM [falling, full curve, poor fit]. Same read-out and setting: for `CCCCC(=O)NNC(=S)NC(=O)c1cccc([N+](=O)[O-])c1` the value was 12.6 µM [falling, single point].

As for `Cc1ccc(C(=O)N/C(=C\c2ccccc2)C(=O)NCCCn2ccnc2)cc1`, the AC50 under setting [1] was 3.98 µM [falling, full curve, poor fit].

Regarding `CCOc1c(Cl)cc(C(=O)Nc2ccccc2C(=O)O)cc1Cl`, the AC50 under setting [2] is 3.16 µM [falling, full curve].

As for `CSc1nc2sc3c(c2c(=O)n1-c1ccccc1C)CCCC3`, the half-maximal activity concentration (AC50) under setting [1] was 11.2 µM [rising, single point]. `CCC(=O)N1CCN(c2ccc(Cl)cc2NC(=O)Cc2ccccc2)CC1`: the AC50 under setting [2] was 10 µM [rising, partial curve].

Regarding `Cc1cccc(NC(=S)N=Nc2c(O)[nH]c3ccccc23)c1`, the AC50 was 14.1 µM [rising, partial curve] under setting [2] and 22.4 µM [rising, partial curve] under setting [1]. `Cc1cccc(N2CCN(C(=O)CN(C)S(=O)(=O)c3ccc4c(c3)CCC(=O)N4)CC2)c1C`: under setting [1], the AC50 was 35.5 µM [rising, single point]. For `C=CCNC(=O)/C(C#N)=C\c1cc(Cl)c(O)c(OCC)c1`, the AC50 under setting [2] is 31.6 µM [rising, single point] and the half-maximal activity concentration (AC50) under setting [1] is 35.5 µM [rising, single point]. With `C/C(=N\OCc1ccccc1)c1c(O)cc(C(C)C)n(-c2ccccc2)c1=O`, the AC50 is 12.6 µM [rising, single point] under setting [2] and 12.6 µM [rising, single point] under setting [1].

Take `CCC(C(=O)Nc1ccc(OC)c(Cl)c1)c1ccccc1` (stereo unspecified): the concentration at half-maximal activity (AC50) under setting [1] was 14.1 µM [rising, partial curve].

In the case of `CN(C)S(=O)(=O)Oc1cccc(C(=O)Nc2ccc([N+](=O)[O-])cc2)c1`, the AC50 under setting [1] is 25.1 µM [falling, partial curve, poor fit]. Consider `CCOC(=O)C1=C(c2ccccc2)NC(SCC(=O)Nc2ccc(C)cc2)=C(C#N)C1c1ccco1` (stereo unspecified), for which, under setting [1], the half-maximal activity concentration (AC50) was 35.5 µM [rising, single point]. Consider `Cc1onc(-c2ccccc2)c1C(=O)N/N=C/C(Br)=C/c1ccccc1`, for which the AC50 is, setting by setting: under setting [2], 5.01 µM [rising, partial curve]; under setting [1], 11.2 µM [rising, partial curve].

Turning to `COc1ccc(-c2cc(C3CCN(Cc4cccc(C(F)(F)F)c4)CC3)[nH]n2)cc1`, the half-maximal activity concentration (AC50) under setting [1] is 0.00355 µM [rising, full curve, poor fit]. The same measure, in the same setting: next, `O=C(NCC(c1ccco1)S(=O)(=O)c1ccc(Cl)cc1)c1ccccc1F` (stereo unspecified): 0.501 µM [rising, full curve, poor fit]; `Brc1cccc(-c2cnc3n2CCCCC3)c1`: 11.2 µM [rising, partial curve, poor fit].

Turning to `O=Nc1c(-c2c(O)[nH]c3cc(Br)ccc23)[nH]c2ccccc12`, the half-maximal activity concentration (AC50) was 5.01 µM [falling, full curve] under setting [2] and 2.82 µM [falling, full curve] under setting [1].

With `CC(=O)Oc1c(C(=O)c2nnc(C)o2)c(=O)n(Cc2ccccc2)c2ccccc12`, the AC50 is, setting by setting: under setting [2], 10 µM [rising, partial curve]; under setting [1], 12.6 µM [rising, partial curve]. Consider `CC(C)c1ccc(O)c(NC(=O)c2cncc(Br)c2)c1`, for which the half-maximal activity concentration (AC50) under setting [1] is 10 µM [rising, partial curve, poor fit].

Consider `Cc1nc(C)c(C(=O)NCc2ccc(Cl)cc2)o1`, for which the AC50 under setting [1] is 10 µM [rising, partial curve].

As for `O=S(=O)(Nc1cccc(-c2ccc(N3CCCCC3)nn2)c1)c1cccc(F)c1`, under setting [2], the concentration at half-maximal activity (AC50) was 0.0112 µM [falling, full curve, poor fit].

On to `O=C(NCCN1CCOCC1)c1cc(Sc2ccccc2Cl)nc2ccccc12`, for which the half-maximal activity concentration (AC50) under setting [1] is 5.62 µM [rising, full curve, poor fit].

Take `CCOC(=O)c1sc(N2N=C(C)/C(=C\c3ccc(OCC(=O)OC)cc3)C2=O)nc1C`: under setting [1], the concentration at half-maximal activity (AC50) was 1.41 µM [rising, full curve, poor fit]. With `Cc1nn(C)c(C)c1CNC(=O)/C=C/c1ccccc1F`, the concentration at half-maximal activity (AC50) reads like this: under setting [2], 10 µM [rising, partial curve]; under setting [1], 14.1 µM [rising, partial curve]. Regarding `O=C1CN(C(=O)Cn2ncc(Cl)c(Cl)c2=O)c2ccccc2N1`, the half-maximal activity concentration (AC50) under setting [1] is 35.5 µM [rising, single point]. Still for that read-out and setting: for `O=C1c2ccccc2-n2c1nc1ccccc1c2=O` the value was 0.355 µM [falling, partial curve].

As usually defined, the AC50 is the midpoint of the concentration-response curve, whichever way the signal moves.
